Assay results reported in paper PMC7819943, “Rice protein-binding microarrays: a tool to detect cis-acting elements near promoter regions in rice”.
The list shows a part of the results.

These sequences were tested against T1, OsSMF1 (Oryza sativa, UniProt Q6ZLB0 1-436) (assay: protein-binding microarray (RPBM); PBS, 2% BSA, 51.3 ng/ul salmon testes DNA, 50 uM zinc acetate, 200 nM TF, 25 C, 1 h; high values mean tight binding). Details: protein: recombinant; tags: N-terminal polyhistidine and DsRed monomer fusion (pET32a); chain copies: 2; label: CyDye5-dUTP incorporated in the synthesized complementary strand; 3' TTTTT single-stranded linker to array surface; dsDNA, one strand shown.
T1 sequence: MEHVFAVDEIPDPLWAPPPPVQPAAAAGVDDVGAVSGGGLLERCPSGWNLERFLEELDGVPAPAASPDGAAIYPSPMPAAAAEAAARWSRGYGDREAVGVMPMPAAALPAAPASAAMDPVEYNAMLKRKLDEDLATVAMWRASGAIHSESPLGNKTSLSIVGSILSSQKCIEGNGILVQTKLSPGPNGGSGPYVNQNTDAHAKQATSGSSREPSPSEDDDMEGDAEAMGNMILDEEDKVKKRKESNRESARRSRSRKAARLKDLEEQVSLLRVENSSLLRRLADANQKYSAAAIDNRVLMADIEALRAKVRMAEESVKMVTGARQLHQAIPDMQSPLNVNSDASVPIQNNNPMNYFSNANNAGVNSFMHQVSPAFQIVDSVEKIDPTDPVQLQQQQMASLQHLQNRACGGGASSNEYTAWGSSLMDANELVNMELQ
Method in brief: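 Transcription factors, each fused N-terminally to a polyhistidine tag and DsRed, were expressed in E. coli BL21-CodonPlus and purified on Ni–NTA. A custom Agilent array was made double-stranded by primer extension with Cy5-dUTP and blocked with 2% BSA. It was incubated with 200 nM protein in PBS, 2% BSA, salmon testes DNA and 50 µM zinc acetate at 25 °C for 1 h, then washed. The binding signal is per-feature fluorescence intensity (arbitrary units) read on an Axon 4000B scanner.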

Sequence	binding signal
GTAAACGCATGCCTTTTCGCAAATTTGTAAAACGAAACGACGGAGTCACCTAGTGCAG	31500 fluorescence intensity (a.u.)
CACGTATGAAGCACTTTGCTGATATGAATCGTAGTGAACGCGGAGTCACCTAGTGCAG	3360 fluorescence intensity (a.u.)
TCCGCCTCCGCCTCCACCTCCACCTCCACCTCCGCCTCCACGGAGTCACCTAGTGCAG	4210 fluorescence intensity (a.u.)
CGCGGGACCGGGACCCGGCGTGCCACGTGGCAACCACTCGCGGAGTCACCTAGTGCAG	19300 fluorescence intensity (a.u.)
GATAGACTAATTGGTAAACACACATCAGAATATCAGATATCGGAGTCACCTAGTGCAG	3200 fluorescence intensity (a.u.)
GCCCAAAGAAAGAAGGAGGTGGACACGTGGGAGATCTGCGCGGAGTCACCTAGTGCAG	11200 fluorescence intensity (a.u.)
TAGGGTGTGACATGCACCTCCTATGTCTATTACTCTTTGCCGGAGTCACCTAGTGCAG	4030 fluorescence intensity (a.u.)
TGATGCCACGTGCAGTGCAGGTGGCCTTTGGGAGCGGTGACGGAGTCACCTAGTGCAG	4730 fluorescence intensity (a.u.)
GGCGGAAGGCGAACTTGGCGGGCGACGTGGAAGATGGGGCCGGAGTCACCTAGTGCAG	4220 fluorescence intensity (a.u.)
CCCCGAACACGCAGCCTCGCCACGCCACGCGCCCACGCTGCGGAGTCACCTAGTGCAG	6940 fluorescence intensity (a.u.)
CCTCTTCCTTCCTCCTCGCTTCGTCACCCTCCGCCCTCCTCGGAGTCACCTAGTGCAG	4240 fluorescence intensity (a.u.)
TCTGCTAGCTAGGTTCCACCAGTCAGTTTAGTATGTGACTCGGAGTCACCTAGTGCAG	3400 fluorescence intensity (a.u.)
TTATCTCCAATTTAAGCAACCAGAGGAATATATATGCTTGCGGAGTCACCTAGTGCAG	53500 fluorescence intensity (a.u.)
AGCTTTAGTATATGCATGTCACAGGATGACACTGCGTGCACGGAGTCACCTAGTGCAG	3450 fluorescence intensity (a.u.)
CAAAATCACCTACTCCCCTGGTTCTACAATTTCTTACAGTCGGAGTCACCTAGTGCAG	11400 fluorescence intensity (a.u.)
GACTTTACTCTATCTTCATTTCCGCACAACGTTGACTGGGCGGAGTCACCTAGTGCAG	3590 fluorescence intensity (a.u.)
AGCCACGGGCGAGCGGGAGGTGGCACGTCGACAGGCGGCGCGGAGTCACCTAGTGCAG	5040 fluorescence intensity (a.u.)
CGGCCCATGCCCGATCCATATCCAGACCCAATACGAAGTTCGGAGTCACCTAGTGCAG	12500 fluorescence intensity (a.u.)
TGTTCGAACTGACGTGGTAGTACTACGTCGTCGCGGCCTTCGGAGTCACCTAGTGCAG	11800 fluorescence intensity (a.u.)
TGTTTAATAATAAATTTAGTAACATCAATTTTACATGATTCGGAGTCACCTAGTGCAG	46100 fluorescence intensity (a.u.)
GCACTTCCGGTATCTACAGCGTCGACACCTATTTGCTGTTCGGAGTCACCTAGTGCAG	4780 fluorescence intensity (a.u.)

Sequence	binding signal
GCAACTTATCATGATCGTGACCGCAAAACAGCGGCGAGTTCGGAGTCACCTAGTGCAG	3150 fluorescence intensity (a.u.)
CGCATCATCCGCCCGTACACGTGTCCTGCATCGACGGCGCCGGAGTCACCTAGTGCAG	7430 fluorescence intensity (a.u.)
CTTACCATGTAGAAGGTGATACTTGCGAGGTATCGGACGACGGAGTCACCTAGTGCAG	24600 fluorescence intensity (a.u.)
CTACGACCACGTCCCCGGCCGCAGCCTCTTCCACCTCCTCCGGAGTCACCTAGTGCAG	3870 fluorescence intensity (a.u.)
GATTTATTTTATCATTACGTGTACTTAAAAGCATGGCTTACGGAGTCACCTAGTGCAG	6750 fluorescence intensity (a.u.)
GTGTGAACTAAACACAGCCCAATTGTGACAAGTATCACGGCGGAGTCACCTAGTGCAG	3420 fluorescence intensity (a.u.)
CGGAAGTCGTCTTCTCCTATCACCCTGGGAATGACTCAATCGGAGTCACCTAGTGCAG	4250 fluorescence intensity (a.u.)
AATGCGTGGCTTTACCTGACGCGTGCGTGGCTTCCGTGCACGGAGTCACCTAGTGCAG	12200 fluorescence intensity (a.u.)
GCGCTCGCCGTCGTGGCGCCGGCCGCCGTGGCCTCACGCTCGGAGTCACCTAGTGCAG	4360 fluorescence intensity (a.u.)
AAGCGAGCGATGAGTCATATCATTATCTTTCTAGCCTGCTCGGAGTCACCTAGTGCAG	7530 fluorescence intensity (a.u.)
CAAAGCTGGGACCTGGGTGAGATCTGCGAAGTCAGCAGAGCGGAGTCACCTAGTGCAG	8070 fluorescence intensity (a.u.)
CGGTGGGTCGTCCTCAGAAGGACACGTGTCCCCACCCCTCCGGAGTCACCTAGTGCAG	9760 fluorescence intensity (a.u.)
GGGAGTATATATTTCCACGCTGCCCTTTAGTATACACCTCCGGAGTCACCTAGTGCAG	3510 fluorescence intensity (a.u.)
ATATTTTGGGCCTGTTTGGCACAGCTCCAGCTCCACCCCTCGGAGTCACCTAGTGCAG	3560 fluorescence intensity (a.u.)
CAATCCTCCACGTCGCCGCGCGGCTCGCGATCCGAACGCCCGGAGTCACCTAGTGCAG	5740 fluorescence intensity (a.u.)
CTCGCTCGCCTGCCTCCCCACCTCACCAGCTCACCCCACGCGGAGTCACCTAGTGCAG	4810 fluorescence intensity (a.u.)
TGTCATATAAATGCCACGTCAAACACCACGTTGGACGATGCGGAGTCACCTAGTGCAG	19700 fluorescence intensity (a.u.)
GCCGCGCGCACGCGACGGGTTTGGGTCGAAACGGACGTCGCGGAGTCACCTAGTGCAG	4190 fluorescence intensity (a.u.)
CGTCTGCTTTTCAAAATATTAAACTTCTCGAACAAATTATCGGAGTCACCTAGTGCAG	17700 fluorescence intensity (a.u.)
AAGTGTGTCCCTGTATTACTTACACGTGTGGCGTGTGTAACGGAGTCACCTAGTGCAG	5770 fluorescence intensity (a.u.)
TCCACTAACGATTAATATCTAGGTTTTATTTTAGAGTGTGCGGAGTCACCTAGTGCAG	36600 fluorescence intensity (a.u.)

Fetched one by one from above (two):
Sequence	binding signal
TCTGCTAGCTAGGTTCCACCAGTCAGTTTAGTATGTGACTCGGAGTCACCTAGTGCAG	3400 fluorescence intensity (a.u.)
GCCCAAAGAAAGAAGGAGGTGGACACGTGGGAGATCTGCGCGGAGTCACCTAGTGCAG	11200 fluorescence intensity (a.u.)
